Earlier results, collected in patent publication US8129370B2, “Use of oxicam compounds” (Dritte PatentPortfolio Beteiligungsgesellschaft MBH & Co. KG, priority 2003, dated 2012).
At least one compound was matched to its structure with a doubt left.

Tests used:
[1] = test system: Alzheimer's Disease; conditions: 100 to 150 mg per day, over 6 months; cited from earlier work
[2] = test system: amyloid precursor protein (APP); conditions: cited from earlier work
[3] = test system: Aβ42; conditions: WO 01/78721 A1; cited from earlier work

Row | Structure (SMILES) | reduction of cognitive degradation [1] | portion of the amyloid β-42 peptide [2] | portion of the non-amyloidogenic soluble APP [2] | influence on the expression of Aβ42 [3]
1 | COc1ccc2c(c1)c(CC(=O)O)c(C)n2C(=O)c1ccc(Cl)cc1 [indometacin] | approximately 9% | lowered | increased | –
2 | Cc1cnc(NC(=O)C2=C(O)c3ccccc3S(=O)(=O)N2C)s1 [meloxicam] | – | – | – | do not influence the expression of Aβ42 and even increase the expression thereof, respectively
